For this experiment, the target named is CSPG4, endogenous on HeLa cells (human (endogenous in HeLa)) (UniProt Q6UVK1). In words: cell surface binding assay (immunoblot of cell lysates); only the binder purified. In general terms: A western blot detects proteins with antibodies after separation by electrophoresis.

Protein sequences, listed by entry. Tags and fused reporters are not part of them. Residues count along the entry.
UniProt Q6UVK1, residues 30-2322: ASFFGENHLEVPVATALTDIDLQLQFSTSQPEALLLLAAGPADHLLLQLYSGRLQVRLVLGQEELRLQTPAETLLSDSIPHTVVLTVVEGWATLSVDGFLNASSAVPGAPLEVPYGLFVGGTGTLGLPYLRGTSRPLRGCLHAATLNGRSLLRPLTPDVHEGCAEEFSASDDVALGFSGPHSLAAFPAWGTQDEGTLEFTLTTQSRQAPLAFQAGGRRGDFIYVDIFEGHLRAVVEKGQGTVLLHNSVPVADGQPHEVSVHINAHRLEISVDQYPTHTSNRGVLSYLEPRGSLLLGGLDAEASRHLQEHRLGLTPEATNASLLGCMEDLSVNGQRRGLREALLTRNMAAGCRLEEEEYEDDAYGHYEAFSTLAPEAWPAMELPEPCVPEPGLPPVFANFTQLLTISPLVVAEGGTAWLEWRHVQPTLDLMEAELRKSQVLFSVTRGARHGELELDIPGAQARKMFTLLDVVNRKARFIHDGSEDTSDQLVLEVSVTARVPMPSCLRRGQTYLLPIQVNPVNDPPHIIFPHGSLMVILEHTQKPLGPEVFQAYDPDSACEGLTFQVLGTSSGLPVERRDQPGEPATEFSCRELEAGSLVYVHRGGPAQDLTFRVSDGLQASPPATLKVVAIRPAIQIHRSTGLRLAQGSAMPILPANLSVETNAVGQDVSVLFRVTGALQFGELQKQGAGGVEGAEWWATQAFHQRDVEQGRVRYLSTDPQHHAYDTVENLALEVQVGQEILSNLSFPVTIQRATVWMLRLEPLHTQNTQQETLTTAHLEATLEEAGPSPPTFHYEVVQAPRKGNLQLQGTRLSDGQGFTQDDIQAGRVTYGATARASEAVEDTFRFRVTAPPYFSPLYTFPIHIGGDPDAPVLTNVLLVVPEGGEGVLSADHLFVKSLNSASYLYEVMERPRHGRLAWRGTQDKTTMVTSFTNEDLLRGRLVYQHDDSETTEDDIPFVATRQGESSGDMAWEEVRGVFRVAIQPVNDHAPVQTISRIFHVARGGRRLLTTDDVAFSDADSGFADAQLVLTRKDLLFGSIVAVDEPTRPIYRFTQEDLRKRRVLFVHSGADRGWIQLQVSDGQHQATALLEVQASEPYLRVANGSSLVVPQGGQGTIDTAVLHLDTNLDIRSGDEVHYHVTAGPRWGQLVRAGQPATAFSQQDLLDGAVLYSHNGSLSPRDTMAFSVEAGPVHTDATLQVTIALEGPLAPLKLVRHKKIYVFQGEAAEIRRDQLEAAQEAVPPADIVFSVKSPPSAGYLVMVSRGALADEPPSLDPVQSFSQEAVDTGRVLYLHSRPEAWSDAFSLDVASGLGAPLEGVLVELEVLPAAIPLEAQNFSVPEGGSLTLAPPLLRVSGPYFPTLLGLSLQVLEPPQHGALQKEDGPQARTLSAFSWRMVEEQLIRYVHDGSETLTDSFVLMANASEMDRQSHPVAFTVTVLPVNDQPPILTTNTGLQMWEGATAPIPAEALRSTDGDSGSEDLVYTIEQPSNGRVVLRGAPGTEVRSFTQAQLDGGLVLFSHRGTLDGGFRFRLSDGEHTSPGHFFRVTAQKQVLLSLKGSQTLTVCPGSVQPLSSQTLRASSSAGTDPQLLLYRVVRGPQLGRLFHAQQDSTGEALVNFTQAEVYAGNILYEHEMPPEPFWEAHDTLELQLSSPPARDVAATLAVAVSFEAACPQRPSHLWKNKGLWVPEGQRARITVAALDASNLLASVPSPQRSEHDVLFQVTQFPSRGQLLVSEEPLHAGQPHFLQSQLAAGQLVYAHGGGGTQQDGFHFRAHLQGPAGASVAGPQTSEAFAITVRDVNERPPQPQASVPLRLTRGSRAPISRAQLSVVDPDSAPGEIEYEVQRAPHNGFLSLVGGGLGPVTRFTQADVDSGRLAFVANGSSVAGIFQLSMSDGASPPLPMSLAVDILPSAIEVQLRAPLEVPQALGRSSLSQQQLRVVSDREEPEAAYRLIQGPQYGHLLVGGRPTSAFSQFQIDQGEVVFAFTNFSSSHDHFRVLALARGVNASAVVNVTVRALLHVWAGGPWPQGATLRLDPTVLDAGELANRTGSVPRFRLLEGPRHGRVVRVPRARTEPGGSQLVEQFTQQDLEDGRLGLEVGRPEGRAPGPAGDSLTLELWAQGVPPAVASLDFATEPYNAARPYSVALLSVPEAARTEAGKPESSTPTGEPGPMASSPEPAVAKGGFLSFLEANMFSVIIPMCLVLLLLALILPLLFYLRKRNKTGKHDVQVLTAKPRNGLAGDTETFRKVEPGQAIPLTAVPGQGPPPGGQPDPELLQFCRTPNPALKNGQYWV
UniProt P18177: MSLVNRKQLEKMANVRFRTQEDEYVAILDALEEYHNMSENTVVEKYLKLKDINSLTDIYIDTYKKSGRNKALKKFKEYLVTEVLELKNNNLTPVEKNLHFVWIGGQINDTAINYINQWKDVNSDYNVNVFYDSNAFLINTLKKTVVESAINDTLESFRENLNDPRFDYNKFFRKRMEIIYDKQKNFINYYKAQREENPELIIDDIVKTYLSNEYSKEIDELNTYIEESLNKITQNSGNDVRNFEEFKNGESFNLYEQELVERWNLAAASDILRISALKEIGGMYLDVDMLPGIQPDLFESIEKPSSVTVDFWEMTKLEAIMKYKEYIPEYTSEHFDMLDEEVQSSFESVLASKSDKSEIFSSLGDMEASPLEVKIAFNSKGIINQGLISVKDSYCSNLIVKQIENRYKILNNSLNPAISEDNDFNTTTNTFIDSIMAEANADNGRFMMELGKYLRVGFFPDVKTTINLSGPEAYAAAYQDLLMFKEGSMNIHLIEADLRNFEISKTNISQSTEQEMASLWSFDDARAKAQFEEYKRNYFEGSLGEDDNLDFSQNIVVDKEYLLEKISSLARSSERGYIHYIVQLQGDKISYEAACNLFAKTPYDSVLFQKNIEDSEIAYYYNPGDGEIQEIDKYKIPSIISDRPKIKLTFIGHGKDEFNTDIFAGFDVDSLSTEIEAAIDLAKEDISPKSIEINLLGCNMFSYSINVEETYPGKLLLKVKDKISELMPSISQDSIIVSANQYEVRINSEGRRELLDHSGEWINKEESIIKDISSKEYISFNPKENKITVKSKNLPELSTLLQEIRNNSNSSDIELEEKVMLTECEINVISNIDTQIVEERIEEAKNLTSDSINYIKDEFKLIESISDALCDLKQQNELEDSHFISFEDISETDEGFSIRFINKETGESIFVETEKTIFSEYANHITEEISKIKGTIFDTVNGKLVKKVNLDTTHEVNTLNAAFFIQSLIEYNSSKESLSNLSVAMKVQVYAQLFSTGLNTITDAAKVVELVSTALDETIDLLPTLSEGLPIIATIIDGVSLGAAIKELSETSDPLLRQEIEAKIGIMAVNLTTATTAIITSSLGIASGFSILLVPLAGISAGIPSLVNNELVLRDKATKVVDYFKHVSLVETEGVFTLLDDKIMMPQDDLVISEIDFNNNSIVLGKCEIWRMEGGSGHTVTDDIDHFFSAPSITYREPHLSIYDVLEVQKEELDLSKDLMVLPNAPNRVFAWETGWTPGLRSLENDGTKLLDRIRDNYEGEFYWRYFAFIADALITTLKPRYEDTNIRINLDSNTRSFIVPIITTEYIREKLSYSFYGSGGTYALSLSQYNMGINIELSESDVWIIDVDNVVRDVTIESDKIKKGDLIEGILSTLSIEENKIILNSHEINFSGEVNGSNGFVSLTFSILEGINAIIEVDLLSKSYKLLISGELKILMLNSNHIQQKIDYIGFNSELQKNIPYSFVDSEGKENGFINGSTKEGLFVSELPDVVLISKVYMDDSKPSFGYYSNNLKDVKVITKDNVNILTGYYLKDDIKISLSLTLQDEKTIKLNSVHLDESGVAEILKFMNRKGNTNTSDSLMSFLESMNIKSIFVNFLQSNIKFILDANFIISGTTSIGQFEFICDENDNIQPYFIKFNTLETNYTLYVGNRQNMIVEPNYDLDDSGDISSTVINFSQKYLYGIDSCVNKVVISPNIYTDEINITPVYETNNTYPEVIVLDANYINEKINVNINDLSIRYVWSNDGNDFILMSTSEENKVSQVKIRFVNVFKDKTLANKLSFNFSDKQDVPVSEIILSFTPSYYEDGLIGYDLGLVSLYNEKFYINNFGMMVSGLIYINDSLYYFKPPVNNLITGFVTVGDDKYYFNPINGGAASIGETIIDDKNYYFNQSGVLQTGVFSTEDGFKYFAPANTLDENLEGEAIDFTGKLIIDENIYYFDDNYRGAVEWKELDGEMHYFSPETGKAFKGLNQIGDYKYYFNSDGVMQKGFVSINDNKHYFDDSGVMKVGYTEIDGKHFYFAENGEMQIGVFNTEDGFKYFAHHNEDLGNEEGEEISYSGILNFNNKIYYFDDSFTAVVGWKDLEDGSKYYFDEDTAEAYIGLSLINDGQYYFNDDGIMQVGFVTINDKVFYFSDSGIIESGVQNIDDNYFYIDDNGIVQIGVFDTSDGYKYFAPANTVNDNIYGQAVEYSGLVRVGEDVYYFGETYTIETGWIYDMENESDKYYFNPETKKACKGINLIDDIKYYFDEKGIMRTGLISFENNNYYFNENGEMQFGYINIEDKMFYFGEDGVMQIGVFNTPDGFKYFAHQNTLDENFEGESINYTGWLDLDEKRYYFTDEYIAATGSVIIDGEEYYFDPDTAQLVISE

No constants are given. Whether binding was seen depends on the method and setting. Some binding calls cover weakened binding; strength is not graded here.

As to “Twin-Strep tagged full-length wild-type TcdB1 (VPI10463 strain), from E. coli (from UniProt P18177 1-2366)”, the binding result is “binds”.

The values are drawn from publication PMC8213806.
